The text below walks through data of paper PMC6177253.

No constants are given. Whether binding was seen depends on the method and setting. In cells and extracts the contact can be indirect. A yes stands for co-enrichment or nearness to the bait. Other partners may have been found.

For the experiment, the target named is recombinant MAVA5_06970 protein (without signal sequence, 6xHN-tagged) (Mycobacterium avium subsp. hominissuis strain A5). Nature of the experiment: affinity purification with mass spectrometry; 6xHN-MAVA5_06970 immobilised on a His60 nickel column; total protein extract of THP-1 cells (in PBS with protease inhibitors) loaded overnight at 4°C with rotation; washed, eluted, SDS-PAGE, Coomassie bands excised, ESI-MS/MS; control: E. coli with the empty pET6xHN-N vector; only the target purified.

B1: Alpha-2-macroglobulin (protein, UniProt P01023 24-1474)
chain: SVSGKPQYMVLVPSLLHTETTEKGCVLLSYLNETVTVSASLESVRGNRSLFTDLEAENDVLHCVAFAVPKSSSNEEVMFLTVQVKGPTQEFKKRTTVMVKNEDSLVFVQTDKSIYKPGQTVKFRVVSMDENFHPLNELIPLVYIQDPKGNRIAQWQSFQLEGGLKQFSFPLSSEPFQGSYKVVVQKKSGGRTEHPFTVEEFVLPKFEVQVTVPKIITILEEEMNVSVCGLYTYGKPVPGHVTVSICRKYSDASDCHGEDSQAFCEKFSGQLNSHGCFYQQVKTKVFQLKRKEYEMKLHTEAQIQEEGTVVELTGRQSSEITRTITKLSFVKVDSHFRQGIPFFGQVRLVDGKGVPIPNKVIFIRGNEANYYSNATTDEHGLVQFSINTTNVMGTSLTVRVNYKDRSPCYGYQWVSEEHEEAHHTAYLVFSPSKSFVHLEPMSHELPCGHTQTVQAHYILNGGTLLGLKKLSFYYLIMAKGGIVRTGTHGLLVKQEDMKGHFSISIPVKSDIAPVARLLIYAVLPTGDVIGDSAKYDVENCLANKVDLSFSPSQSLPASHAHLRVTAAPQSVCALRAVDQSVLLMKPDAELSASSVYNLLPEKDLTGFPGPLNDQDNEDCINRHNVYINGITYTPVSSTNEKDMYSFLEDMGLKAFTNSKIRKPKMCPQLQQYEMHGPEGLRVGFYESDVMGRGHARLVHVEEPHTETVRKYFPETWIWDLVVVNSAGVAEVGVTVPDTITEWKAGAFCLSEDAGLGISSTASLRAFQPFFVELTMPYSVIRGEAFTLKATVLNYLPKCIRVSVQLEASPAFLAVPVEKEQAPHCICANGRQTVSWAVTPKSLGNVNFTVSAEALESQELCGTEVPSVPEHGRKDTVIKPLLVEPEGLEKETTFNSLLCPSGGEVSEELSLKLPPNVVEESARASVSVLGDILGSAMQNTQNLLQMPYGCGEQNMVLFAPNIYVLDYLNETQQLTPEIKSKAIGYLNTGYQRQLNYKHYDGSYSTFGERYGRNQGNTWLTAFVLKTFAQARAYIFIDEAHITQALIWLSQRQKDNGCFRSSGSLLNNAIKGGVEDEVTLSAYITIALLEIPLTVTHPVVRNALFCLESAWKTAQEGDHGSHVYTKALLAYAFALAGNQDKRKEVLKSLNEEAVKKDNSVHWERPQKPKAPVGHFYEPQAPSAEVEMTSYVLLAYLTAQPAPTSEDLTSATNIVKWITKQQNAQGGFSSTQDTVVALHALSKYGAATFTRTGKAAQVTIQSSGTFSSKFQVDNNNRLLLQQVSLPELPGEYSMKVTGEGCVYLQTSLKYNILPEKEEFPFALGVQTLPQTCDEPKAHTSFQISLSVSYTGSRSASNMAIVDVKMVSGFIPLKPTVKMLERSNHVSRTEVSSNHVLIYLDKVSNQTLSLFFTVLQDVPVRDLKPAIVKVYDYYETDEFAIAEYNAPCSKDLGNA
With B1, the binding entry is “binds”.

B2: Heterogeneous nuclear ribonucleoprotein L (protein, UniProt P14866 1-589)
chain: MSRRLLPRAEKRRRRLEQRQQPDEQRRRSGAMVKMAAAGGGGGGGRYYGGGSEGGRAPKRLKTDNAGDQHGGGGGGGGGAGAAGGGGGGENYDDPHKTPASPVVHIRGLIDGVVEADLVEALQEFGPISYVVVMPKKRQALVEFEDVLGACNAVNYAADNQIYIAGHPAFVNYSTSQKISRPGDSDDSRSVNSVLLFTILNPIYSITTDVLYTICNPCGPVQRIVIFRKNGVQAMVEFDSVQSAQRAKASLNGADIYSGCCTLKIEYAKPTRLNVFKNDQDTWDYTNPNLSGQGDPGSNPNKRQRQPPLLGDHPAEYGGPHGGYHSHYHDEGYGPPPPHYEGRRMGPPVGGHRRGPSRYGPQYGHPPPPPPPPEYGPHADSPVLMVYGLDQSKMNCDRVFNVFCLYGNVEKVKFMKSKPGAAMVEMADGYAVDRAITHLNNNFMFGQKLNVCVSKQPAIMPGQSYGLEDGSCSYKDFSESRNNRFSTPEQAAKNRIQHPSNVLHFFNAPLEVTEENFFEICDELGVKRPSSVKVFSGKSERSSSGLLEWESKSDALETLGFLNHYQMKNPNGPYPYTLKLCFSTAQHAS
With B2, the binding entry is “binds”.
